{"source": "PubChem BioAssay AID540303", "about": "(National Center for Advancing Translational Sciences (NCATS), 2011)", "note": "The campaign covered roughly 330,000 compounds. About 1,000 (0.3%) were called active. This list was built around the results that the source calls inconclusive (neither active nor inactive); the mix of calls is not that of the screen. Calls come from the whole dose curve; as a rule, active = well fitted inhibition curve with a large enough effect; inconclusive = small, poorly fitted or top-dose-only effect; inactive = no such curve, though single readings can be large or run the other way; tested in mouse RAW 264.7 cells. Potencies beside an inconclusive call are fits to weak or partial responses and may not hold up. % is set by controls: 0 for no effect and ±100 for the full control effect; potency is the fitted concentration of half-maximal effect."}
{"test": "qHTS for Inhibitors of Cell Surface uPA Generation; note: nearly all actives have a fitted effect of over 55% in size", "settings": "cell surface uPA generation assay; series mostly up to 38.3 µM; activity change, negative = inhibition: at the top concentration", "method_in_brief": "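RAW 264.7 cells, 4000/well, given compound (1:5 dilutions, up to 38.3 uM final) and incubated 24 h at 37 C. Blocked uPA-dependent LF entry keeps ATP high; ATPlite luminescence read, 5 s exposure.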"}
{"smiles": "CC1CCc2c(sc(NC(=O)/C=C/c3cccs3)c2C(=O)O)C1", "note": "(stereo unspecified)", "Potency": "active: 10 µM"}
{"smiles": "O=C(CN1CCN(Cc2ccccc2)CC1)NNC(=O)c1ccc(Cl)cc1", "activity change, negative = inhibition": "inactive: -3.4%"}
{"smiles": "C[C@@H](C(=O)Nc1ccc2ccccc2c1)[C@H]1C[C@]1(C)[C@H](NC(=O)OCc1ccccc1)c1ccccc1", "Potency": "inconclusive: 7.08 µM [inhibitor, single point]"}
{"smiles": "Cc1cccc(NC(=S)N=Nc2c(O)n(CN3CCOCC3)c3ccccc23)c1C", "Potency": "inconclusive: 8.91 µM [inhibitor, partial curve, poor fit]"}
{"smiles": "Cc1ccc(/C=C/C(=O)c2nc3ccccc3[nH]2)cc1", "activity change, negative = inhibition": "inactive: 1.3%"}
{"smiles": "CCN(CC)C(=O)[C@H]1C[C@H](CC(=O)NC/C=C(\\C)CCC=C(C)C)C(=O)N2CCc3c([nH]c4cc(CCC(=O)N(C)C)ccc34)[C@]12C", "Potency": "inconclusive: 11.2 µM [inhibitor, single point]"}
{"smiles": "Oc1ccc(Br)cc1/C=N/n1c(COc2ccccc2)n[nH]c1=S", "Potency": "inconclusive: 1.41 µM [inhibitor, full curve, poor fit]"}
{"smiles": "COc1ccc(C(c2c(C)[nH][nH]c2=O)c2c(C)[nH][nH]c2=O)cc1Br", "Potency": "inconclusive: 31.6 µM [inhibitor, partial curve, poor fit]"}
{"smiles": "O=C(CCS(=O)(=O)c1ccc(F)cc1)Nc1nnc(-c2cccs2)o1", "Potency": "active: 10 µM"}
{"smiles": "O=C(NCCC1=CCCCC1)c1c(O)nc2ccccn2c1=O", "Potency": "inconclusive: 8.91 µM [inhibitor, single point]"}
{"smiles": "O=C(Nc1nnc(-c2ccco2)s1)c1ccccc1", "activity change, negative = inhibition": "inactive: -26.2%"}
{"smiles": "COc1ccc(CCNC(=O)[C@H](C)N2C(=O)N3CCc4c([nH]c5ccccc45)[C@@]3(C)C2=O)cc1", "Potency": "inconclusive: 6.31 µM [inhibitor, partial curve]"}
{"smiles": "Cc1ccc(NC(=O)COc2ccc(N(C)S(=O)(=O)c3ccc(F)cc3)cc2)cc1", "Potency": "inconclusive: 8.91 µM [inhibitor, partial curve, poor fit]"}
{"smiles": "CN(CC(=O)Nc1ccccc1Cl)C(=O)c1cccc(S(=O)(=O)N2CCN(c3ccccc3)CC2)c1", "Potency": "inconclusive: 28.2 µM [inhibitor, single point]"}
{"smiles": "COc1ccc(O)c(CN2CCN(CCCc3ccccc3)C(CCO)C2)c1", "note": "(stereo unspecified)", "Potency": "inconclusive: 0.355 µM [inhibitor, partial curve, poor fit]"}
{"smiles": "COc1cc(CC(=O)OCC(=O)N2CCCCC2)cc(OC)c1OC", "activity change, negative = inhibition": "inactive: 3.9%"}
{"smiles": "O=C(Cn1[nH]c(=O)c2ccccc2c1=O)OCC(=O)N(Cc1ccccc1)Cc1ccccc1", "activity change, negative = inhibition": "inactive: 3.23%"}
{"smiles": "Cc1ccc(NC(=O)COc2ccc(N(C)C(=O)C(C)(C)C)cc2)cc1S(=O)(=O)N1CCCCC1", "Potency": "inconclusive: 12.6 µM [inhibitor, partial curve, poor fit]"}
{"smiles": "Cc1ccc2c(c1)[C@H]1[C@H](CO2)[C@H](c2ccccc2)[C@]2(C)C(=O)Nc3ccc(F)cc3C(=O)N12", "Potency": "inconclusive: 8.91 µM [inhibitor, single point]"}
{"smiles": "Nc1cccc(-c2cnc3ccccc3n2)c1", "Potency": "inconclusive: 28.2 µM [inhibitor, single point]"}
{"smiles": "COc1ccc(-c2csc3ncnc(Sc4nnnn4C)c23)cc1", "Potency": "inconclusive: 3.55 µM [inhibitor, partial curve]"}
{"smiles": "O=C(CCc1nnc(-c2ccc3c(c2)OCO3)o1)NCCc1ccccc1F", "activity change, negative = inhibition": "inactive: 2.86%"}
{"smiles": "Cc1ccc(S(=O)(=O)NCCC(=O)Nc2ccc(S(=O)(=O)NC(C)C)cc2)cc1", "activity change, negative = inhibition": "inactive: -9.52%"}
{"smiles": "O=C(Nc1ccc(Cl)c(C(F)(F)F)c1)[C@@H]1CC=C[C@@H]2CCN(Cc3ccc(Cl)c(Cl)c3)C(=O)[C@@H]21", "Potency": "inconclusive: 31.6 µM [inhibitor, single point]"}
{"smiles": "CSCCC(NC(=O)c1ccccc1Br)C(=O)NC(C)CCc1ccccc1", "note": "(stereo unspecified)", "Potency": "inconclusive: 1.26 µM [inhibitor, partial curve, poor fit]"}
{"smiles": "CCN(CC)CCNC(=O)c1c(O)c2cccc3c2n(c1=O)CCC3", "activity change, negative = inhibition": "inactive: -15%"}
{"smiles": "CC(C)OCC(O)CN1CCN(CCN2C(=O)c3cccc4cccc(c34)C2=O)CC1", "note": "(stereo unspecified)", "Potency": "inconclusive: 10 µM [inhibitor, single point]"}
{"smiles": "Cc1ccc(-c2cc(C(=O)O)c3cc(Br)ccc3n2)s1", "Potency": "inconclusive: 7.08 µM [inhibitor, single point]"}
{"smiles": "COc1ccc(OC)c2sc(N(CCN(C)C)C(=O)/C=C/c3cccs3)nc12", "activity change, negative = inhibition": "inactive: -1.94%"}
{"smiles": "Cc1ccc(S(=O)(=O)Nc2ccccc2F)cc1C(=O)N1CCN(c2ccccc2O)CC1", "Potency": "inconclusive: 12.6 µM [inhibitor, single point]"}
{"smiles": "COC(=O)C(=C/C=C/c1ccco1)C(=O)OC", "Potency": "inconclusive: 12.6 µM [inhibitor, single point]"}
{"smiles": "C=CCn1c(SCC(=O)c2ccc(O)c(O)c2)nnc1-c1cccc(OC)c1", "Potency": "inconclusive: 6.31 µM [inhibitor, partial curve]"}
{"smiles": "COc1ccc(NC(=O)C(=O)NCCC2CCCCN2S(=O)(=O)c2ccccc2)cc1", "note": "(stereo unspecified)", "Potency": "inconclusive: 2.51 µM [inhibitor, full curve, poor fit]"}
{"smiles": "COc1ccc(/C=C2\\Sc3ccc(C(=O)NC4CC4)cc3N(C)C2=O)cc1OC", "Potency": "inconclusive: 12.6 µM [inhibitor, single point]"}
{"smiles": "N=C1C(c2ccccc2)=C(O)CN1c1ccc2c(c1)OCO2", "activity change, negative = inhibition": "inactive: -1.43%"}
{"smiles": "Cc1ccc(NC(=O)c2ncn(CC(=O)NCc3ccc4[nH]ccc4c3)n2)cc1C", "Potency": "inconclusive: 11.2 µM [inhibitor, partial curve, poor fit]"}
{"smiles": "CCOc1ccccc1CN1CCN(Cc2cc(=O)c3ccccc3[nH]2)CC1CCO", "note": "(stereo unspecified)", "Potency": "inconclusive: 28.2 µM [inhibitor, single point]"}
{"smiles": "Cc1noc(/C=C/N(C)C)c1S(=O)(=O)N1CCCC(C(=O)Nc2ccc(F)cc2F)C1", "note": "(stereo unspecified)", "Potency": "inconclusive: 5.62 µM [inhibitor, partial curve, poor fit]"}
{"smiles": "COc1cccc(-c2c(NC(C)=O)n(C)c3ccccc3c2=O)c1", "activity change, negative = inhibition": "inactive: 8.63%"}
{"smiles": "CCc1[nH]c(=O)[nH]c1C(C)S(=O)(=O)c1ccc(C)cc1", "note": "(stereo unspecified)", "activity change, negative = inhibition": "inactive: -4.25%"}
{"smiles": "O=C(O)c1cccc(NC(=O)c2cccc(S(=O)(=O)N3CCCCC3)c2)c1", "activity change, negative = inhibition": "inactive: -1.81%"}
